Results are given in words; binding and its absence hold for the method and conditions named. In cells and extracts the contact can be indirect. Some entries that bind do so weakly or less than the wild type.
Target: high-voltage activated calcium channel Cav2.3 (mouse (endogenous in hippocampus)) (UniProt Q61290)
Experiment: co-IP; native co-IP from 12-week-old WT C57BL/6 mouse hippocampus lysate (150 mM NaCl, 20 mM Tris-HCl, 1% CHAPS); anti-Cav2.3 on protein A beads, 4°C overnight, IgG as nonspecific control; blot for BK

Protein sequences, listed by entry. Tags and fused reporters are not part of them.
UniProt Q61290: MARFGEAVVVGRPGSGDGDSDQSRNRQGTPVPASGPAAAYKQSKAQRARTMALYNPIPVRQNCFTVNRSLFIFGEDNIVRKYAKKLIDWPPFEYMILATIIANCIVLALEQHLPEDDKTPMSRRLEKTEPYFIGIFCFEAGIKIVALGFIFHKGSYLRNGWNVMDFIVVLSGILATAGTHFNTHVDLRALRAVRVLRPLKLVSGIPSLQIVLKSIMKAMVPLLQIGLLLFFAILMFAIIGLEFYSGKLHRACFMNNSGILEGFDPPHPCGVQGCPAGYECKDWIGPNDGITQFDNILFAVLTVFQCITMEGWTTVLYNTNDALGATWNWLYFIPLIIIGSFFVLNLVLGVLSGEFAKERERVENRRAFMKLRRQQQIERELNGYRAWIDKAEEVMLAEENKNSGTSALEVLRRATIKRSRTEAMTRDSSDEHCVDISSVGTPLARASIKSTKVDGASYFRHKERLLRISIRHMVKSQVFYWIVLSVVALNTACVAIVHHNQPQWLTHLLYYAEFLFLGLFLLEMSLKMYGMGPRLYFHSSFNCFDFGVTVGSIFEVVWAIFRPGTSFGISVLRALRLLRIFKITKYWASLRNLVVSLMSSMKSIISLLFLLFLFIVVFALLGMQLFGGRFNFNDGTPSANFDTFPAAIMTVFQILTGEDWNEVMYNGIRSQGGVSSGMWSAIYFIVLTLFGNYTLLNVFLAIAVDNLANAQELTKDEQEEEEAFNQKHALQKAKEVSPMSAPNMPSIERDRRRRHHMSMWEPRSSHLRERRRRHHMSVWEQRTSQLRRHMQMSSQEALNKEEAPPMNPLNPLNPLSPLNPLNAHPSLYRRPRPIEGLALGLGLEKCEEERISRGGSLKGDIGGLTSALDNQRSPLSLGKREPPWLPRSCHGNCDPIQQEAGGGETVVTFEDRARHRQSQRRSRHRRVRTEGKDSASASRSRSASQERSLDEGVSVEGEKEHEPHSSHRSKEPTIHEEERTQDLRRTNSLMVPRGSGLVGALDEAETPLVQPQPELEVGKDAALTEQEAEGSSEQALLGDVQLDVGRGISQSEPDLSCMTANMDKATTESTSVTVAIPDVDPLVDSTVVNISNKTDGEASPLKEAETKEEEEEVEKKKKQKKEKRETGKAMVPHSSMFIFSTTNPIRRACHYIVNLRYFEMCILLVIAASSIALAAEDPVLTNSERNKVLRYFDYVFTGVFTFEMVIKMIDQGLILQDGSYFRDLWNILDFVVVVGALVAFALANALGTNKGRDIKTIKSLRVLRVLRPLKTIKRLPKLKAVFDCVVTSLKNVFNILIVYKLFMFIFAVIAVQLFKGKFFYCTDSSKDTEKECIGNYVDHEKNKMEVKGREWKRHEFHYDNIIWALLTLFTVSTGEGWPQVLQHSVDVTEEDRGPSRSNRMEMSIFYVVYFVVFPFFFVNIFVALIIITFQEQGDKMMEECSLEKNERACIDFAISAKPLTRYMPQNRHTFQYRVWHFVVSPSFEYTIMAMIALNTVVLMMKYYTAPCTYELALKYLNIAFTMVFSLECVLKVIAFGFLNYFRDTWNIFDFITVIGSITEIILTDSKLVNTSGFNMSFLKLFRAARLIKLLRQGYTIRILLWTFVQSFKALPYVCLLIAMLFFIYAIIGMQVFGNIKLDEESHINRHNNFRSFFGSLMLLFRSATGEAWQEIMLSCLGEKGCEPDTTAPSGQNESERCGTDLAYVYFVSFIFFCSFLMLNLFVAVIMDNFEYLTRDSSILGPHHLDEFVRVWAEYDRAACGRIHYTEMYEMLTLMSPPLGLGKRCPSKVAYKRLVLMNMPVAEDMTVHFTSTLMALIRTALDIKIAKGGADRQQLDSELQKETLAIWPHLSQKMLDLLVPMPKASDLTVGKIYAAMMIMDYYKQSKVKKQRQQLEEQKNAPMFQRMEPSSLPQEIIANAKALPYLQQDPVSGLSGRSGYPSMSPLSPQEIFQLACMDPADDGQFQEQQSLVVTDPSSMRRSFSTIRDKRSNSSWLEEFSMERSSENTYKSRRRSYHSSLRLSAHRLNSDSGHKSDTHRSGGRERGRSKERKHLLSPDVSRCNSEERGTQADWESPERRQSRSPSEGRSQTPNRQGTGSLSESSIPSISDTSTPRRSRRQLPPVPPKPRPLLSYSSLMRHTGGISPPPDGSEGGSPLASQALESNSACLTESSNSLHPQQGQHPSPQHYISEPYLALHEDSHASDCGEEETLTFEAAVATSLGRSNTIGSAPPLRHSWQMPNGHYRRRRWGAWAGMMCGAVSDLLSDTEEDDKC
UniProt Q08460: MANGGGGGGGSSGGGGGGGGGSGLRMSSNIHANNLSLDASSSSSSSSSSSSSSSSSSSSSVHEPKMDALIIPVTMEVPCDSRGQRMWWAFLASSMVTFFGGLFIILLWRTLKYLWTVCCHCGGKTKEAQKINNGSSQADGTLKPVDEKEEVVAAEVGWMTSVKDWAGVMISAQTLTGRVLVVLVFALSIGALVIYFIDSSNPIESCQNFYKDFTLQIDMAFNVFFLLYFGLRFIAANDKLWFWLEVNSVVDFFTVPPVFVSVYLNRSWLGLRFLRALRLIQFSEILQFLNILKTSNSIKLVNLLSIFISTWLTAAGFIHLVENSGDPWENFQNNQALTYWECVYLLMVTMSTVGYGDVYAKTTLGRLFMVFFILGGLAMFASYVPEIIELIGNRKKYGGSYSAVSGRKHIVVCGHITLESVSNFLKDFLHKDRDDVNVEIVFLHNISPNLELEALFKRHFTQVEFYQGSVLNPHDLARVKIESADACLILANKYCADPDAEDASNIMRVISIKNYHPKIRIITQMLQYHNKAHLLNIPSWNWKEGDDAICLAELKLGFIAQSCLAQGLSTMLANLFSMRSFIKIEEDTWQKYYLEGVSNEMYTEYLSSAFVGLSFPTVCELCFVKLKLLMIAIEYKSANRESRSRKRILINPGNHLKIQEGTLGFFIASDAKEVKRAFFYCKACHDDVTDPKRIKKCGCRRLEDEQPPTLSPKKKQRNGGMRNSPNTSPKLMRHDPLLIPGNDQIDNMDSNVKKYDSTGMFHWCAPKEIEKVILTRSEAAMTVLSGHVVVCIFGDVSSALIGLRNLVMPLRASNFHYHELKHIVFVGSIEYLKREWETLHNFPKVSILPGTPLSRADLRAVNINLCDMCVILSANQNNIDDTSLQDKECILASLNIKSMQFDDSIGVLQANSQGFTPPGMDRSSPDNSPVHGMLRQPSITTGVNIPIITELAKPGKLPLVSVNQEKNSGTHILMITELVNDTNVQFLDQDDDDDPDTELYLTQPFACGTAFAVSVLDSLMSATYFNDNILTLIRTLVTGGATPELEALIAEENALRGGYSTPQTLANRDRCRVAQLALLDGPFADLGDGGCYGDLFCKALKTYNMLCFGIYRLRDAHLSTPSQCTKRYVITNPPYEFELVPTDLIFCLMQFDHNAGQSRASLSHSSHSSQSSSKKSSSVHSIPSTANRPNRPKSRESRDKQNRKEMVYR

- binding: binds
Substance: big-conductance calcium-activated potassium channel (BK) alpha subunit (from UniProt Q08460 1-1209)

From publication PMC6393364
